Hit rate of the full screen: of about 320,000 compounds, about 2,100 (0.66%) were called active. The inconclusive results got no clear call from the source; some entries with a clear call stand among them for comparison. The call rests on the fitted dose curve; in most records, active means well fitted inhibition curve with a large enough effect in the signal ratio, with a control signal flat (not every such curve was filed as active); inconclusive means small, poorly fitted or top-dose-only effect, or effect the other way, or a change in a side signal; inactive means flat fitted curve, though single readings scatter; the % refers to the signal ratio. Potencies beside an inconclusive call are fits to weak or partial responses and may not hold up.
assay: qHTS Assay for Lipid Storage Modulators in Drosophila S3 Cells; conditions: BODIPY lipid droplet fluorescence, 18-24 h, cells fed with added oleic acid; lipid storage change, negative = inhibition: at 46.1 µM (top of the series) unless noted
Outline: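 Drosophila S3 cells got compounds at several concentrations plus oleic acid (400 uM solution). Laser-scanning cytometry with 488 nm excitation read lipid droplets at 500-530 nm and cells at 575-640 nm. Percent activity was relative to 20 uM Triacsin C.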
On the % scale 0 is the no-effect control and ±100 the full control effect; potency means the concentration at half of the fitted maximal effect.

Row | SMILES | Potency | lipid storage change, negative = inhibition
1 | CC(C)OCCCNc1ncnc2c1[nH]c1ccccc12 | inconclusive: 2.91 µM [rising, partial curve] | –
2 | CCCN1CCC(NC(=S)Nc2ccc(S(N)(=O)=O)cc2)CC1 | – | inactive: -2.97%
3 | CCOc1ccc(N(CC(=O)Nc2ccc(C)cc2)S(C)(=O)=O)cc1 | inconclusive: 6.51 µM [activator, single point] | –
4 | Cc1ccc(CNc2cccnc2)cc1 | – | inconclusive: 15.7%
5 | COc1cccc(NC(=O)NCC2CCN(Cc3ccc(F)cc3)CC2)c1 | – | inconclusive: 5.47%
6 | CCOC(=O)CSc1nc2cc3c(cc2cc1C#N)OCO3 | – | inconclusive: -40.8%
7 | COc1cccc(CN2CC(C(=O)N(C)CCc3ccccc3)CCC2=O)c1 (centres undefined) | – | inconclusive: -127%
8 | CN(C)c1nc(N)nc(-c2cccnc2)n1 | – | inconclusive: 21.1%
9 | COc1cccc(C(=O)NN2CC(O)=C(c3nc4ccccc4s3)C2=N)c1 | – | inconclusive: -33.7% [cytotoxic] [at 0.00295 µM]
10 | CCOC(=O)c1c(C)[nH]c(C(=O)Nc2ccc(NC(C)=O)cc2)c1C | inconclusive: 2.59 µM [rising, full curve] | –
11 | CC(=O)NCCn1c(SCc2ccc(C)cc2)nc2ccccc2c1=O | – | inconclusive: -54.2%
12 | Cc1ccccc1CNC1CCCCC1 | – | inconclusive: -1.05%
13 | CCN(CC)CCCN(C(=O)c1ccccc1C)c1nc(-c2ccc(OC)cc2)cs1 | inconclusive: 4.11 µM [activator, full curve] | –
14 | COc1ccccc1NS(=O)(=O)c1ccc(C(=O)N2CCN(c3ccccc3)CC2)cc1 | – | inconclusive: -15.2%
15 | O=C(CSc1ccc2nnc(-c3ccccn3)n2n1)Nc1ccccc1 | – | inconclusive: 5.72%
16 | Cn1c(=O)c2c(ncn2CC(=O)Nc2ccccc2Sc2ccccc2)n(C)c1=O | inconclusive: 2.59 µM [activator, partial curve] | –
17 | COc1ccc(OC)c(NC(=O)C(CCS(C)(=O)=O)NC(C)=O)c1 (centres undefined) | – | inconclusive: -6.49%
18 | CCc1ccc2c(CN3CCN(Cc4ccccc4)CC3)cc(=O)oc2c1 | – | inconclusive: 18.6%
19 | COc1cc(OC)cc(-c2nnc(SCC(=O)N3CCCC3)o2)c1 | – | inconclusive: 25.1%
20 | COc1ccc2cc(C(C)C(=O)NC3CCC(O)CC3)ccc2c1 (centres undefined) | inconclusive: 3.66 µM [falling, single point] | –
21 | CC(CNS(=O)(=O)c1cc(Cl)ccc1Cl)CN(C)C (centres undefined) | – | inconclusive: -17.4%
22 | Cn1cc(/C(Cc2ccccc2)=N\O)c2ccccc21 | inconclusive: 2.06 µM [rising, partial curve, poor fit] | –
23 | O=C(CN1CCN(c2ccccc2)CC1)N1N=CCC1c1ccccc1 (centres undefined) | inconclusive: 0.092 µM [activator, full curve, poor fit] | –
24 | Cc1cccc(C)c1NC(=O)Nc1cccs1 | – | inconclusive: -2.18%
25 | CN(C)c1ccc(C(CNC(=O)c2ccco2)N2CCCC2)cc1 (centres undefined) | inconclusive: 20.6 µM [activator, single point] | –

Row | SMILES | Potency | lipid storage change, negative = inhibition
26 | CCC1CCCCN1CCCNC(=O)C1CCN(Cc2nc(-c3ccc(Cl)cc3)oc2C)CC1 (centres undefined) | inconclusive: 29.1 µM [activator, partial curve] | –
27 | O=c1c(O)c(-c2ccc(O)cc2O)oc2cc(O)cc(O)c12 | – | inconclusive: -15.7%
28 | CCCCN(C)C(=O)c1nc2ccccn2c1CN1CCN(c2cnccn2)CC1 | – | inconclusive: 8.56%
29 | COC(=O)C1CCN(C(=O)CN2C(=O)c3ccccc3S2(=O)=O)CC1 | – | inconclusive
30 | Nc1ccc(-c2nnc(-c3ccc(-c4ccccc4)cc3)o2)cc1 | – | inconclusive: 28.6%
31 | COc1cccc2c(=O)c(C/C=C(/C)Cl)c(C)[nH]c12 | – | inconclusive: 10.6%
32 | O=C(NS(=O)(=O)Oc1ccc(F)c(Cl)c1)OC[C@@H]1CCCN2CCCCC12 (some centres undefined) | – | inconclusive: 0.0126%
33 | O=C(c1ccc(S(=O)(=O)N2CCOCC2)cc1)N1CCN(c2ccccc2F)CC1 | inconclusive: 0.651 µM [falling, single point] | –
34 | CCOc1ccccc1N1CCN(C(=O)C(F)(F)F)CC1 | – | inconclusive: 4.56%
35 | CCc1sc(C(=O)N2CCc3cc(OC)c(OC)cc3C2CC(=O)O)cc1C (centres undefined) | inconclusive: 2.31 µM [falling, single point] | –
36 | CC(C)C(=O)NC(=S)Nc1ccc(S(=O)(=O)N2CCCC2)cc1 | inconclusive: 0.82 µM [falling, single point] | –
37 | CCC(C)(C)NC(=O)C(c1cccnc1)N(C(=O)c1csnn1)c1ccc(C)cc1 (centres undefined) | – | inconclusive: -4.7%
38 | CC(NC(=O)c1ccc(CS(C)(=O)=O)cc1)C1CC2CCC1C2 (centres undefined) | inconclusive: 0.116 µM [falling, single point] | –
39 | CCn1c(SCC(=O)N2CCN(c3ccc(F)cc3)CC2)nnc1-c1ccncc1 | – | inconclusive: 8.31%
40 | Cc1noc(C)c1S(=O)(=O)NCCCN1CCN(Cc2ccccc2)CC1 | – | inconclusive: 0.449%
41 | CN(CCOc1ccc(Cl)cc1)c1ccc(S(=O)(=O)N2CCCCC2)cn1 | – | inconclusive: -7.89%
42 | COc1cccc(NC(=O)CSc2nc3ccccc3c(=O)n2CCCC(=O)NCC2CCCO2)c1 (centres undefined) | – | inconclusive: -20.5%
43 | O=C(NCc1nnnn1-c1ccc(F)cc1)C1CC(=O)N(c2ccc(F)cc2)C1 (centres undefined) | – | inconclusive: 33.4%
44 | O=C(NNc1nc2c(F)cc(F)cc2s1)C1COc2ccccc2O1 (centres undefined) | inconclusive: 6.51 µM [rising, partial curve, poor fit] | –
45 | COCCNC(=S)Nc1ccccc1Cc1ccccc1 | inconclusive: 29.1 µM [activator, single point] | –
46 | COc1ccc(S(=O)(=O)Cc2ccc(C(=O)N3CCc4ccccc4C3)o2)cc1 | inconclusive: 2.06 µM [activator, partial curve, poor fit] | –
47 | Cc1ccc(N2C(=O)C3NN=C(C(=O)OCc4ccccc4)C3C2=O)c(C)c1 (centres undefined) | – | inconclusive: 0.505%
48 | CCCOc1ccc(-c2nnc(-c3ccncc3)o2)cc1 | – | inconclusive: 35%
49 | CC(=O)c1ccc(-n2nnnc2SCC(=O)Nc2cccc(NC(=O)c3ccco3)c2)cc1 | – | inconclusive: -31.8%

Laid out differently: three of the compounds above.

| Row | SMILES | Potency | lipid storage change, negative = inhibition |
| --- | --- | --- | --- |
| 35 | CCc1sc(C(=O)N2CCc3cc(OC)c(OC)cc3C2CC(=O)O)cc1C (centres undefined) | inconclusive: 2.31 µM [falling, single point] | – |
| 46 | COc1ccc(S(=O)(=O)Cc2ccc(C(=O)N3CCc4ccccc4C3)o2)cc1 | inconclusive: 2.06 µM [activator, partial curve, poor fit] | – |
| 47 | Cc1ccc(N2C(=O)C3NN=C(C(=O)OCc4ccccc4)C3C2=O)c(C)c1 (centres undefined) | – | inconclusive: 0.505% |

From PubChem BioAssay AID2685 (National Center for Advancing Translational Sciences (NCATS), 2010)
